{"source": "paper PMC8620715", "about": "“Biological Activity of Triazolopyrimidine Copper(II) Complexes Modulated by an Auxiliary N-N-Chelating Heterocycle Ligands” (Molecules, 2021)", "assay": "ROS scavenging ability by EPR spectroscopy (KO2, H2O2)", "details": "5 mM complex in DMSO; for interaction with hydroxyl radicals (EPR signal on adding H2O2): H2O2 as OH· source; for interaction with superoxide (EPR signal on adding KO2): KO2 10 and 50 μM"}
{"smiles": "Cc1cc(C)n2ncnc2n1.Cc1cc(C)n2ncnc2n1.Cc1cc(C)n2ncnc2n1.O.[Cu+2].[O-][Cl+3]([O-])([O-])[O-].[O-][Cl+3]([O-])([O-])[O-].c1ccc(-c2ccccn2)nc1", "note": "[Complex (1), [Cu(bpy)(dmtp)2(OH2)](ClO4)2·dmtp]", "values": [{"measurement": "interaction with hydroxyl radicals (EPR signal on adding H2O2)", "result": "trapped rather than scavenged"}, {"measurement": "interaction with superoxide (EPR signal on adding KO2)", "result": "trapped rather than scavenged"}]}
{"smiles": "Cc1cc(C)n2ncnc2n1.Cc1cc(C)n2ncnc2n1.Cc1cc(C)n2ncnc2n1.O.[Cu+2].[O-][Cl+3]([O-])([O-])[O-].[O-][Cl+3]([O-])([O-])[O-].c1cnc2c(c1)ccc1cccnc12", "note": "[Complex (2), [Cu(phen)(dmtp)2(OH2)](ClO4)2·dmtp]", "values": [{"measurement": "interaction with hydroxyl radicals (EPR signal on adding H2O2)", "result": "no reaction towards the hydroxyl radicals"}, {"measurement": "interaction with superoxide (EPR signal on adding KO2)", "result": "some scavenging ability"}]}
